40 sequences from paper PMC7862700 can be followed below.

The entries are a selection whose mix differs from that of the whole data set. For some assays here: At the low end of the ranking the order means little. The list shows a part of the results. For some assays here: Construct or isoform of the protein are uncertain.

The target in the first test is T1, GABPA (UniProt Q06546).
T1 sequence: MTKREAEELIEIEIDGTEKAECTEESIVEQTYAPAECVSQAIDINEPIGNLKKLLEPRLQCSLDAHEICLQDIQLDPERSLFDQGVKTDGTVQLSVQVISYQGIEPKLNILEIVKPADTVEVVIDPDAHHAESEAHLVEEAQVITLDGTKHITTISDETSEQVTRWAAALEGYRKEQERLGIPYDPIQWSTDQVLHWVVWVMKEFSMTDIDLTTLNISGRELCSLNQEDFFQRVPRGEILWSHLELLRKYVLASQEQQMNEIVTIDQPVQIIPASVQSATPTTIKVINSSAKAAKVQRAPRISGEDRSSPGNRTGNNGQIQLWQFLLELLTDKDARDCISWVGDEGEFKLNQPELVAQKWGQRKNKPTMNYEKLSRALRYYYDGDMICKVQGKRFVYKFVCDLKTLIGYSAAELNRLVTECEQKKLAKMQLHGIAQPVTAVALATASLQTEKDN
The experiment in a line: DAPPL (digital affinity profiling via proximity ligation, sequencing). Particulars: 10 mM Tris-HCl pH 7.5, 50 mM NaCl, 1 mM DTT, 4% glycerol, room temperature, 30 min; GST-TFs on glutathione beads, 16-mer random dsDNA library, 0.1% …; high values mean tight binding; double strand, one strand shown; scale: fold enrichment (6-mer frequency, TF over GST control).
Sequence GAAAAC returned a binding signal of 1.05.
ATACAC showed a binding signal of 1.25.
Take TTTCGG: the binding signal stood at 1.14.
As for GCCTGC, the binding signal was 1.07.
On the same count and under the same terms, under ATCCGT stands 0.908; under GATACA, 0.994; under GCCCCA, 0.985.
The same measure, in the same setting: the result for GCCCCG reads 0.993.
Same read-out and setting: the result for TGTTTC reads 1.59; that for CGCTTG, 1.09; that for GGCTAT, 0.995.
TTTTCT had a binding signal of 1.27.
Take ATAATG: the binding signal came to 1.06.
As to ACCTGA, the binding signal was determined as 1.03.
Sequence CGTATC showed a binding signal of 1.29.
Take AAACCG: the binding signal turned out to be 1.07.
Take CGTCGA: the binding signal came to 0.975.
The same measure, in the same setting: under CGGCAT stands 1.07; under TAGCAA, 1.21; under CGACTG, 0.988.
As to CCCATC, the binding signal came out at 1.17.
Same read-out and setting: under GATGGG stands 0.992; under TAGATA, 1.1.
As to CTTTAT, the binding signal came out at 1.18.
On the same count and under the same terms, the result for TTCGCG reads 0.97.
On to CCAATA, for which the binding signal is 1.25.
AAAGTA: the binding signal is 1.17.
Still for that read-out and setting: the result for ACGCCG reads 1.11.
Regarding TGAATC, the binding signal was 1.05.
On the same count and under the same terms, the result for ATGCCA reads 1.02.
Sequence AGGATA displayed a binding signal of 0.939.
Sequence GTCCGC gave a binding signal of 1.
Take GCGACA: the binding signal came out at 0.961.
Same read-out and setting: the result for ATGTTG reads 1.22.
GCTTAC showed a binding signal of 1.05.
The sequence ATAACA yielded a binding signal of 1.22.
Same read-out and setting: the result for TGCCTT reads 1.54.
Same read-out and setting: under TACGAC stands 1.29; under AATCTT, 1.28; under AGCGCC, 1.07.

For the next test, the target named is T2, ETS1 (UniProt P14921).
T2 sequence: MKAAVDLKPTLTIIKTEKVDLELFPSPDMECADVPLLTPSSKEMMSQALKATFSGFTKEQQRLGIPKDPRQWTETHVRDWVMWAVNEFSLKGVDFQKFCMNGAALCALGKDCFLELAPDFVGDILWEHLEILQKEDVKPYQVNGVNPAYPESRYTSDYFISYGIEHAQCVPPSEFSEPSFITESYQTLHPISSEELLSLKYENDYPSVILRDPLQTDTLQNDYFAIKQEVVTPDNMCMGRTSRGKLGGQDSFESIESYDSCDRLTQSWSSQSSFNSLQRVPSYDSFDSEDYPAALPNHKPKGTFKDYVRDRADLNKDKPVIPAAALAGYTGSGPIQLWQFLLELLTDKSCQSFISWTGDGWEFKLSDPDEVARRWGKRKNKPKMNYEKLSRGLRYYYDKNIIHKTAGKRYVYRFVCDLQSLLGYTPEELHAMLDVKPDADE
The description is as above. Particulars: 10 mM Tris-HCl pH 7.5, 50 mM NaCl, 1 mM DTT, 4% glycerol, room temperature, 30 min; GST-TFs on glutathione beads, 16-mer random dsDNA library, 0.1% …; high values mean tight binding; double strand, one strand shown; scale: fold enrichment (6-mer frequency, TF over GST control).
For the sequence GAAAAC, the binding signal was found to be 1.13.
ATACAC returned a binding signal of 1.19.
Turning to TTTCGG, the binding signal worked out at 1.16.
Same read-out and setting: the result for GCCTGC reads 1.09.
In turn, ATCCGT had a binding signal of 0.923.
Consider GATACA, for which the binding signal was 0.962.
Sequence GCCCCA showed a binding signal of 1.02.
Same read-out and setting: under GCCCCG stands 1.04.
The sequence TGTTTC came in with a binding signal of 1.86.
The sequence CGCTTG came in with a binding signal of 1.02.
Take GGCTAT: the binding signal came out at 0.99.
Consider TTTTCT, for which the binding signal worked out at 1.42.
ATAATG gave a binding signal of 1.15.
Sequence ACCTGA gave a binding signal of 1.09.
Regarding CGTATC, the binding signal came to 1.12.
The same measure, in the same setting: under AAACCG stands 1.09.
The same measure, in the same setting: the result for CGTCGA reads 1.09; that for CGGCAT, 1.18.
TAGCAA displayed a binding signal of 1.27.
In turn, CGACTG showed a binding signal of 1.05.
Sequence CCCATC registered a binding signal of 1.18.
For the sequence GATGGG, the binding signal came to 1.04.
Same read-out and setting: the result for TAGATA reads 1.05; that for CTTTAT, 1.21; that for TTCGCG, 1.1.
Regarding CCAATA, the binding signal was 1.23.
In turn, AAAGTA registered a binding signal of 1.16.
The same measure, in the same setting: under ACGCCG stands 1.13; under TGAATC, 1.06.
As to ATGCCA, the binding signal is 1.04.
On the same count and under the same terms, under AGGATA stands 1.01.
On the same count and under the same terms, under GTCCGC stands 1.07; under GCGACA, 0.948.
Still for that read-out and setting: the result for ATGTTG reads 1.23; that for GCTTAC, 1.17; that for ATAACA, 1.33.
Sequence TGCCTT showed a binding signal of 1.34.
Still for that read-out and setting: under TACGAC stands 1.39; under AATCTT, 1.4; under AGCGCC, 1.08.
